This is an account of results in PMC3330813.

No constants are given. Whether binding was seen depends on the method and setting. In cells and extracts the contact can be indirect. Here binding means that the protein was enriched with, or labelled near, the bait; the list need not be complete.

For this assay, the target named is T1, binder of Arl two (BART) (human (endogenous in S2-013)) (UniProt Q9Y2Y0).
T1 sequence: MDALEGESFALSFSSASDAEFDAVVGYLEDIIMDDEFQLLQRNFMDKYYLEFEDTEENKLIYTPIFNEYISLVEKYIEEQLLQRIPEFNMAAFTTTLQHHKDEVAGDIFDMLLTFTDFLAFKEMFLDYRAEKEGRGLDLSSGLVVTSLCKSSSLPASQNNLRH
The experiment in a line: affinity purification with mass spectrometry; S2-013 lysate (20 mM HEPES pH 7.4, 100 mM KCl, 5 mM MgCl2, 0.5% Triton X-100) precipitated with anti-BART antibody and protein G Sepharose; silver-stained 50-kDa band analysed by Q-TOF-MS; normal rabbit IgG as control.

B1: annexin7 (ANX7) (protein, UniProt P20073-1 1-488)
chain: MSYPGYPPTGYPPFPGYPPAGQESSFPPSGQYPYPSGFPPMGGGAYPQVPSSGYPGAGGYPAPGGYPAPGGYPGAPQPGGAPSYPGVPPGQGFGVPPGGAGFSGYPQPPSQSYGGGPAQVPLPGGFPGGQMPSQYPGGQPTYPSQINTDSFSSYPVFSPVSLDYSSEPATVTQVTQGTIRPAANFDAIRDAEILRKAMKGFGTDEQAIVDVVANRSNDQRQKIKAAFKTSYGKDLIKDLKSELSGNMEELILALFMPPTYYDAWSLRKAMQGAGTQERVLIEILCTRTNQEIREIVRCYQSEFGRDLEKDIRSDTSGHFERLLVSMCQGNRDENQSINHQMAQEDAQRLYQAGEGRLGTDESCFNMILATRSFPQLRATMEAYSRMANRDLLSSVSREFSGYVESGLKTILQCALNRPAFFAERLYYAMKGAGTDDSTLVRIVVTRSEIDLVQIKQMFAQMYQKTLGTMIAGDTSGDYRRLLLAIVGQ
For B1, the binding result is on record as “binds”.
